# Source: the supplement of paper PMC11438910
# The other results are listed elsewhere or left out. Only a few entries rise above the background.
# How the values were obtained:
# Experiment in all cases: fluorescence intensity of antibody binding to polysaccharide-coupled beads; higher = stronger binding
# [1] = biological target: pneumococcal polysaccharide Pn15B
# [2] = biological target: pneumococcal polysaccharide Pn15C
# [3] = biological target: pneumococcal polysaccharide Pn15F
# [4] = biological target: pneumococcal polysaccharide Pn16A
# [5] = biological target: pneumococcal polysaccharide Pn16F
# [6] = biological target: pneumococcal polysaccharide Pn17A
# [7] = biological target: pneumococcal polysaccharide Pn17F
# [8] = biological target: pneumococcal polysaccharide Pn18A
# [9] = biological target: pneumococcal polysaccharide Pn18B
# [10] = biological target: pneumococcal polysaccharide Pn18C
# [11] = biological target: pneumococcal polysaccharide Pn18F
# [12] = biological target: pneumococcal polysaccharide Pn19A
# [13] = biological target: pneumococcal polysaccharide Pn19B
# [14] = biological target: pneumococcal polysaccharide Pn19C
# [15] = biological target: pneumococcal polysaccharide Pn19F
# [16] = biological target: pneumococcal polysaccharide Pn2
# [17] = biological target: pneumococcal polysaccharide Pn20A
# [18] = biological target: pneumococcal polysaccharide Pn20B
# [19] = biological target: pneumococcal polysaccharide Pn21
# [20] = biological target: pneumococcal polysaccharide Pn22A
# [21] = biological target: pneumococcal polysaccharide Pn22F
# [22] = biological target: pneumococcal polysaccharide Pn23A
# [23] = biological target: pneumococcal polysaccharide Pn23B
# [24] = biological target: pneumococcal polysaccharide Pn23F
# [25] = antibody concentration 2337.65 ng/mL
# [26] = antibody concentration 12500 ng/mL
# [27] = antibody concentration 0.1 ng/mL
# [28] = antibody concentration 0.534724 ng/mL
# [29] = antibody concentration 2.8593 ng/mL
# [30] = antibody concentration 15.2894 ng/mL
# [31] = antibody concentration 81.7561 ng/mL
# [32] = antibody concentration 437.17 ng/mL
binder,measurement,setting,value
4-173.2 (protein) chain 1: QLQLQESGPGLVKPSETLSLTCAVSGGSINSNYWSWIRQPPGKGLDWIGRISGSGGSTDYNPSLKSRVTISTDTSKTQFSLKLRSVTAADTAVYYCGRGSYQIDYWGQGILVTVSS chain 2: QAALTQPPSMSGSPGQSVTISCTGTSSDIGGYNRVSWYQQYPGKAPKLMIYEVSKRPSGVSDRFSGSKSGNTASLTISGLQAADEADYYCSSYAGSKALFGGGTRLTVL,fluorescence intensity,[1]; [25],26 MFI
same,fluorescence intensity,[1]; [26],35.8 MFI
same,fluorescence intensity,[2]; [27],17 MFI
same,fluorescence intensity,[2]; [28],17.5 MFI
same,fluorescence intensity,[2]; [29],15.2 MFI
same,fluorescence intensity,[2]; [30],17.8 MFI
same,fluorescence intensity,[2]; [31],14.2 MFI
same,fluorescence intensity,[2]; [32],17 MFI
same,fluorescence intensity,[2]; [25],21.5 MFI
same,fluorescence intensity,[2]; [26],26 MFI
same,fluorescence intensity,[3]; [27],17.5 MFI
same,fluorescence intensity,[3]; [28],17.5 MFI
same,fluorescence intensity,[3]; [29],17.5 MFI
same,fluorescence intensity,[3]; [30],16.8 MFI
same,fluorescence intensity,[3]; [31],17.5 MFI
same,fluorescence intensity,[3]; [32],19 MFI
same,fluorescence intensity,[3]; [25],22.5 MFI
same,fluorescence intensity,[3]; [26],37.8 MFI
same,fluorescence intensity,[4]; [27],14.8 MFI
same,fluorescence intensity,[4]; [28],15.8 MFI
same,fluorescence intensity,[4]; [29],15.8 MFI
same,fluorescence intensity,[4]; [30],11.5 MFI
same,fluorescence intensity,[4]; [31],15.8 MFI
same,fluorescence intensity,[4]; [32],14.2 MFI
same,fluorescence intensity,[4]; [25],17 MFI
same,fluorescence intensity,[4]; [26],32 MFI
same,fluorescence intensity,[5]; [27],23 MFI
same,fluorescence intensity,[5]; [28],24.5 MFI
same,fluorescence intensity,[5]; [29],24.2 MFI
same,fluorescence intensity,[5]; [30],23.5 MFI
same,fluorescence intensity,[5]; [31],25.2 MFI
same,fluorescence intensity,[5]; [32],24 MFI
same,fluorescence intensity,[5]; [25],31.8 MFI
same,fluorescence intensity,[5]; [26],48.5 MFI
same,fluorescence intensity,[6]; [27],21 MFI
same,fluorescence intensity,[6]; [28],21.2 MFI
same,fluorescence intensity,[6]; [29],21.5 MFI
same,fluorescence intensity,[6]; [30],20.5 MFI
same,fluorescence intensity,[6]; [31],21.5 MFI
same,fluorescence intensity,[6]; [32],21 MFI
same,fluorescence intensity,[6]; [25],23 MFI
same,fluorescence intensity,[6]; [26],29.5 MFI
same,fluorescence intensity,[7]; [27],25.5 MFI
same,fluorescence intensity,[7]; [28],26 MFI
same,fluorescence intensity,[7]; [29],26 MFI
same,fluorescence intensity,[7]; [30],26.8 MFI
same,fluorescence intensity,[7]; [31],24 MFI
same,fluorescence intensity,[7]; [32],28.5 MFI
same,fluorescence intensity,[7]; [25],27 MFI
same,fluorescence intensity,[7]; [26],36.5 MFI
same,fluorescence intensity,[8]; [27],23.5 MFI
same,fluorescence intensity,[8]; [28],22.5 MFI
same,fluorescence intensity,[8]; [29],24.5 MFI
same,fluorescence intensity,[8]; [30],23.8 MFI
same,fluorescence intensity,[8]; [31],27 MFI
same,fluorescence intensity,[8]; [32],23.5 MFI
same,fluorescence intensity,[8]; [25],26.8 MFI
same,fluorescence intensity,[8]; [26],38.5 MFI
same,fluorescence intensity,[9]; [27],30.5 MFI
same,fluorescence intensity,[9]; [28],31 MFI
same,fluorescence intensity,[9]; [29],29.5 MFI
same,fluorescence intensity,[9]; [30],31 MFI
same,fluorescence intensity,[9]; [31],29.8 MFI
same,fluorescence intensity,[9]; [32],33 MFI
same,fluorescence intensity,[9]; [25],35.5 MFI
same,fluorescence intensity,[9]; [26],52.5 MFI
same,fluorescence intensity,[10]; [27],20.5 MFI
same,fluorescence intensity,[10]; [28],20.2 MFI
same,fluorescence intensity,[10]; [29],20 MFI
same,fluorescence intensity,[10]; [30],18.5 MFI
same,fluorescence intensity,[10]; [31],17.5 MFI
same,fluorescence intensity,[10]; [32],22.5 MFI
same,fluorescence intensity,[10]; [25],26.2 MFI
same,fluorescence intensity,[10]; [26],37 MFI
same,fluorescence intensity,[11]; [27],23 MFI
same,fluorescence intensity,[11]; [28],22.5 MFI
same,fluorescence intensity,[11]; [29],24.5 MFI
same,fluorescence intensity,[11]; [30],21.5 MFI
same,fluorescence intensity,[11]; [31],22.5 MFI
same,fluorescence intensity,[11]; [32],25 MFI
same,fluorescence intensity,[11]; [25],31 MFI
same,fluorescence intensity,[11]; [26],43.5 MFI
same,fluorescence intensity,[12]; [27],19 MFI
same,fluorescence intensity,[12]; [28],18 MFI
same,fluorescence intensity,[12]; [29],17 MFI
same,fluorescence intensity,[12]; [30],19 MFI
same,fluorescence intensity,[12]; [31],18.5 MFI
same,fluorescence intensity,[12]; [32],20 MFI
same,fluorescence intensity,[12]; [25],19.5 MFI
same,fluorescence intensity,[12]; [26],32.5 MFI
same,fluorescence intensity,[13]; [27],30 MFI
same,fluorescence intensity,[13]; [28],31 MFI
same,fluorescence intensity,[13]; [29],29 MFI
same,fluorescence intensity,[13]; [30],29 MFI
same,fluorescence intensity,[13]; [31],29.5 MFI
same,fluorescence intensity,[13]; [32],30.5 MFI
same,fluorescence intensity,[13]; [25],48 MFI
same,fluorescence intensity,[13]; [26],295 MFI
same,fluorescence intensity,[14]; [27],29 MFI
same,fluorescence intensity,[14]; [28],26.2 MFI
same,fluorescence intensity,[14]; [29],26 MFI
same,fluorescence intensity,[14]; [30],25 MFI
same,fluorescence intensity,[14]; [31],25.8 MFI
same,fluorescence intensity,[14]; [32],25 MFI
same,fluorescence intensity,[14]; [25],41.8 MFI
same,fluorescence intensity,[14]; [26],184 MFI
same,fluorescence intensity,[15]; [27],26 MFI
same,fluorescence intensity,[15]; [28],23.5 MFI
same,fluorescence intensity,[15]; [29],27 MFI
same,fluorescence intensity,[15]; [30],26.5 MFI
same,fluorescence intensity,[15]; [31],25.5 MFI
same,fluorescence intensity,[15]; [32],28.5 MFI
same,fluorescence intensity,[15]; [25],36 MFI
same,fluorescence intensity,[15]; [26],47.8 MFI
same,fluorescence intensity,[16]; [27],19 MFI
same,fluorescence intensity,[16]; [28],20.2 MFI
same,fluorescence intensity,[16]; [29],19.5 MFI
same,fluorescence intensity,[16]; [30],18 MFI
same,fluorescence intensity,[16]; [31],20.5 MFI
same,fluorescence intensity,[16]; [32],20.8 MFI
same,fluorescence intensity,[16]; [25],25.8 MFI
same,fluorescence intensity,[16]; [26],36 MFI
same,fluorescence intensity,[17]; [27],23.5 MFI
same,fluorescence intensity,[17]; [28],23.5 MFI
same,fluorescence intensity,[17]; [29],22 MFI
same,fluorescence intensity,[17]; [30],22 MFI
same,fluorescence intensity,[17]; [31],23.5 MFI
same,fluorescence intensity,[17]; [32],23.8 MFI
same,fluorescence intensity,[17]; [25],38.5 MFI
same,fluorescence intensity,[17]; [26],182 MFI
same,fluorescence intensity,[18]; [27],25 MFI
same,fluorescence intensity,[18]; [28],24 MFI
same,fluorescence intensity,[18]; [29],23 MFI
same,fluorescence intensity,[18]; [30],24 MFI
same,fluorescence intensity,[18]; [31],23.5 MFI
same,fluorescence intensity,[18]; [32],26.2 MFI
same,fluorescence intensity,[18]; [25],27.5 MFI
same,fluorescence intensity,[18]; [26],52.5 MFI
same,fluorescence intensity,[19]; [27],20.5 MFI
same,fluorescence intensity,[19]; [28],18 MFI
same,fluorescence intensity,[19]; [29],19.5 MFI
same,fluorescence intensity,[19]; [30],20.5 MFI
same,fluorescence intensity,[19]; [31],19.8 MFI
same,fluorescence intensity,[19]; [32],20.8 MFI
same,fluorescence intensity,[19]; [25],22.5 MFI
same,fluorescence intensity,[19]; [26],28.5 MFI
same,fluorescence intensity,[20]; [27],22.8 MFI
same,fluorescence intensity,[20]; [28],21.5 MFI
same,fluorescence intensity,[20]; [29],20 MFI
same,fluorescence intensity,[20]; [30],20.5 MFI
same,fluorescence intensity,[20]; [31],21.5 MFI
same,fluorescence intensity,[20]; [32],21.8 MFI
same,fluorescence intensity,[20]; [25],26 MFI
same,fluorescence intensity,[20]; [26],79.5 MFI
same,fluorescence intensity,[21]; [27],31.2 MFI
same,fluorescence intensity,[21]; [28],33 MFI
same,fluorescence intensity,[21]; [29],30.5 MFI
same,fluorescence intensity,[21]; [30],33.8 MFI
same,fluorescence intensity,[21]; [31],31.5 MFI
same,fluorescence intensity,[21]; [32],31.8 MFI
same,fluorescence intensity,[21]; [25],33.5 MFI
same,fluorescence intensity,[21]; [26],44.8 MFI
same,fluorescence intensity,[22]; [27],25.2 MFI
same,fluorescence intensity,[22]; [28],26 MFI
same,fluorescence intensity,[22]; [29],23.8 MFI
same,fluorescence intensity,[22]; [30],24.5 MFI
same,fluorescence intensity,[22]; [31],24.2 MFI
same,fluorescence intensity,[22]; [32],31.5 MFI
same,fluorescence intensity,[22]; [25],45.5 MFI
same,fluorescence intensity,[22]; [26],67 MFI
same,fluorescence intensity,[23]; [27],30 MFI
same,fluorescence intensity,[23]; [28],30 MFI
same,fluorescence intensity,[23]; [29],29.5 MFI
same,fluorescence intensity,[23]; [30],29 MFI
same,fluorescence intensity,[23]; [31],29.8 MFI
same,fluorescence intensity,[23]; [32],31.2 MFI
same,fluorescence intensity,[23]; [25],34.8 MFI
same,fluorescence intensity,[23]; [26],47.5 MFI
same,fluorescence intensity,[24]; [27],19.2 MFI
same,fluorescence intensity,[24]; [28],17.5 MFI

# Pulled one by one from the entries so far (4):
binder,measurement,setting,value
4-173.2 (protein) chain 1: QLQLQESGPGLVKPSETLSLTCAVSGGSINSNYWSWIRQPPGKGLDWIGRISGSGGSTDYNPSLKSRVTISTDTSKTQFSLKLRSVTAADTAVYYCGRGSYQIDYWGQGILVTVSS chain 2: QAALTQPPSMSGSPGQSVTISCTGTSSDIGGYNRVSWYQQYPGKAPKLMIYEVSKRPSGVSDRFSGSKSGNTASLTISGLQAADEADYYCSSYAGSKALFGGGTRLTVL,fluorescence intensity,[21]; [30],33.8 MFI
same,fluorescence intensity,[11]; [25],31 MFI
same,fluorescence intensity,[12]; [27],19 MFI
same,fluorescence intensity,[14]; [30],25 MFI

# Copied from the results shown (2 entries):
binder,measurement,setting,value
4-173.2 (protein) chain 1: QLQLQESGPGLVKPSETLSLTCAVSGGSINSNYWSWIRQPPGKGLDWIGRISGSGGSTDYNPSLKSRVTISTDTSKTQFSLKLRSVTAADTAVYYCGRGSYQIDYWGQGILVTVSS chain 2: QAALTQPPSMSGSPGQSVTISCTGTSSDIGGYNRVSWYQQYPGKAPKLMIYEVSKRPSGVSDRFSGSKSGNTASLTISGLQAADEADYYCSSYAGSKALFGGGTRLTVL,fluorescence intensity,[17]; [28],23.5 MFI
same,fluorescence intensity,[17]; [29],22 MFI
